# Patent publication US20200392228A1
# B1: MAdCAM antibody Clone ID 79 of Table 7 (IgG) (antibody, V domains shown)
# VH: EVQLLESGGGLVKPGGSLRLSCAASGFTFDDYAMHWVRQAPGKGLEWVASITSSSAFIDYAASVKGRFTISRDDSKNTLYLQMNSLKTEDTAVYYCARERVDWNSYFDLWGRGTLVTVSS
# VL: EIVMTQSPATLSVSPGERATLSCRASQGISNSYLAWYQQKPGQAPRLLIYGASTRATGIPARFSGSGSGTEFTLTISSLQSEDFAVYYCQQYYTYPPTFGPGTKVDIK
# B2: MAdCAM antibody Clone ID 23 of Table 6 (scFv) (scFv)
# scFv: EVQLLESGGGLVQPGGSLRLSCAASGFTFSSYAMHWVRQAPGKGLEWVSGISGSGGSAYYADSVKGRFTISRDNSKNTLYLQMNSLRAEDTAVYYCATSQAPVDYYYYGMDVWGQGTTVTVSSGGGGSGGGGSGGGGSGGGGSDIQMTQSPSSLSASVGDRVTITCRASQSISSWLAWYQQKPGKAPKLLIYAASNLQRGVPSRFSGSGSGTDFTLTISSLQPEDFATYYCQQSYSIPITFGQGTKVEIK
# B3: MAdCAM antibody Clone ID 7 of Table 6 (scFv) (scFv)
# scFv: QVQLVQSGAEVKKPGASVKVSCKASGYTFTGYHIHWVRQAPGQGLEWMGIINPSGGSTIYAQKFQGRVTMTRDTSTSTVYMELSSLRSEDTAVYYCAKDWSSWYLGPFDYWGQGTLVTVSSGGGGSGGGGSGGGGSGGGGSDIQMTQSPSSLSASVGDRVTITCRASQNISSSLNWYQQKPGKAPKLLIYAASSLQSGVPSRFSGSGSGTDFTLTISSLQPEDFATYYCQQSYTTPYTFGQGTKVEIK
# B4: MAdCAM antibody Clone ID 23 of Table 7 (IgG) (antibody, V domains shown)
# VH: EVQLLESGGGLVQPGGSLRLSCAASGFTFDDYAMHWVRQAPGKGLEWVSYIDTSSSHLYYADSVKGRFTISRDNSKNTLYLQMNSLRAEDTAVYYCARDEAAAGYYGMDVWGQGTTVTVSS
# VL: DIQMTQSPSSLSASVGDRVTITCQAGQDISNYLNWYQQKPGKAPKLLIYDASNLETGVPSRFSGSGSGTDFTLTISSLQPEDFATYYCQQTYSTPITFGQGTKLEIK
# B5: MAdCAM antibody Clone ID 76 of Table 7 (IgG) (antibody, V domains shown)
# VH: EVQLLESGGGLVQPGGSLRLSCAASGFTFDDYTMHWVRQAPGKGLEWVSDISGSGGSTYYADSVKGRFTISRDNSKNTLYLQMNSLRAEDTAVYYCAKDVVVAGTPLHFDYWGQGTLVTVSS
# VL: B4 VL with G26S, D50A, N53Y, E55Q, T56S, T91A, Y92H, S93N, T94Y, K103R
# B6: MAdCAM antibody Clone ID 17 of Table 7 (IgG) (antibody, V domains shown)
# VH: QVQLVQSGAEVKKPGSSVKVSCKASGYTFTDYHIHWVRQAPGQGLEWMGGIVPRSGSTTYAQKFQGRVTITADESTSTAYMELSSLRSEDTAVYYCAKDESSGWYYFDYWGQGTLVTVSS
# VL: DIVMTQSPLSLPVTPGEPASISCRSSQSLLHSNGYNYLDWYLQKPGQSPQLLIYSAYNRASGVPDRFSGSGSGTDFTLKISRVEAEDVGVYYCMQALQTPLTFGQGTKVEIK
# B7: MAdCAM antibody Clone ID 20 of Table 7 (IgG) (antibody, V domains shown)
# VH: EVQLLESGGGLVQPGGSLRLSCAASGFTFSDSAMHWVRQAPGKGLEWVSAISGSGSTIYYADSVKGRFTISRDNSKNTLYLQMNSLRAEDTAVYYCVSDIAVAGHWYFDLWGRGTLVTVSS
# VL: DIQMTQSPSSLSASVGDRVTITCRASQSISTFLNWYQQKPGKAPKLLIYAASRLEGGVPSRFSGSGSGTDFTLTISSLQPEDFATYYCQQANSFPLTFGPGTKVDIK
# B8: MAdCAM antibody Clone ID 55 of Table 7 (IgG) (antibody, V domains shown)
# VH: EVQLLESGGGLVQPGGSLRLSCAASGFTFDDFAMHWVRQAPGKGLEWVSGISGNGDSRYYADSVKGRFTISRDNSKNTLYLQMNSLRAEDTAVYYCARDASYGGNYGMDVWGQGTTVTVSS
# VL: B7 VL with R24Q, S28D, S30R, T31N, F32Y, A50K, R53T, G56S
# B9: MAdCAM antibody Clone ID 9 of Table 6 (scFv) (scFv)
# scFv: EVQLLESGGGLVQPGGSLRLSCAASGFTFSDYYMNWVRQAPGKGLEWVSVIGESGGSTYYADSVKGRFTISRDNSKNTLYLQMNSLRAEDTAVYYCAADPVSRWPKHGGGDYWGQGTLVTVSSGGGGSGGGGSGGGGSGGGGSDIQMTQSPSSLSASVGDRVTITCRASQGISSSLAWYQQKPGKAPKLLIYAASTLQSGVPSRFSGSGSGTDFTLTISSLQPEDFATYYCQQSYSTPWTFGQGTKVEIK
# B10: MAdCAM antibody Clone ID 1 of Table 6 (scFv) (scFv)
# scFv: EVQLLESGGGLVQPGGSLRLSCAASGFTFSSYGMHWVRQAPGKGLEWVAVISDDGSDKYYADSVKGRFTISRDNSKNTLYLQMNSLRAEDTAVYYCTTSKYYYYYGMDVWGQGTTVTVSSGGGGSGGGGSGGGGSGGGGSDIQMTQSPSSLSASVGDRVTITCQASQDISKSLNWYQQKPGKAPKLLIYAASSLQSGVPSRFSGSGSGTDFTLTISSLQPEDFATYYCQQGYSTPLTFGGGTKVEIK
# B11: MAdCAM antibody Clone ID 84 of Table 7 (IgG) (antibody, V domains shown)
# VH: QVQLVQSGAEVKKPGASVKVSCKASGGTFSSSAISWVRQAPGQGLEWMGWISAYNGYTNYAQKFQGRVTMTRDTSTSTVYMELSSLRSEDTAVYYCASRVHSGGSYPDDYWGQGTLVTVSS
# VL: DIQMTQSPSSLSASVGDRVTITCQASEHIYNYLNWYQQKPGKAPKLLIYAASSLQSGVPSRFSGSGSGTDFTLTISSLQPEDFATYYCQQTDSIPITFGQGTKVEIK
# B12: MAdCAM antibody Clone ID 20 of Table 6 (scFv) (scFv)
# scFv: EVQLLESGGGLVQPGGSLRLSCAASGFTFDDYAMHWVRQAPGKGLEWVSYIDTSSSHLYYADSVKGRFTISRDNSKNTLYLQMNSLRAEDTAVYYCARDEAAAGYYGMDVWGQGTTVTVSSGGGGSGGGGSGGGGSGGGGSDIQMTQSPSSLSASVGDRVTITCQAGQDISNYLNWYQQKPGKAPKLLIYDASNLETGVPSRFSGSGSGTDFTLTISSLQPEDFATYYCQQTYSTPITFGQGTKLEIK
# B13: MAdCAM antibody Clone ID 83 of Table 7 (IgG) (antibody, V domains shown)
# VH: EVQLLESGGGLVQPGGSLRLSCAASGFTFSSYWMHWVRQAPGKGLEWVAAISYDGKYKDYEDSVKGRFTISRDNSKNTLYLQMNSLRAEDTAVYYCARENKQWLASFDYWGQGTLVTVSS
# VL: DIQMTQSPSSLSASVGDRVTITCQASQDISNFVNWYQQKPGKAPKLLIYAANLRSGVPSRFSGSGSGTDFTLTISSLQPEDFATYYCQQANSFPVTFGPGTKVDIK
# B14: MAdCAM antibody Clone ID 5 of Table 6 (scFv) (scFv)
# scFv: EVQLLESGGGLVQPGGSLRLSCAASGFTFSSYWMHWVRQAPGKGLEWVSSISPGGSNIDYADSVKGRFTISRDNSKNTLYLQMNSLRAEDTAVYYCAREVQLSHYDYWGQGTLVTVSSGGGGSGGGGSGGGGSGGGGSDIQMTQSPSSLSASVGDRVTITCRASQGISNSLAWYQQKPGKAPKLLIYGASSLQSGVPSRFSGSGSGTDFTLTISSLQPEDFATYYCQQANSFPFTFGQGTKVEIK
# B15: MAdCAM antibody Clone ID 63 of Table 7 (IgG) (antibody, V domains shown)
# VH: EVQLLESGGGLVQPGGSLRLSCAASGFTFNNYGMNWVRQAPGKGLEWVSRINSDGSSTSYADSVKGRFTISRDNSKNTLYLQMNSLRAEDTAVYYCARGAYYYYYMDVWGQGTLVTVSS
# VL: EIVMTQSPATLSVSPGERATLSCRASQSVSGSYLAWYQQKPGQAPRLLIYATSSRASGIPARFSGSGSGTEFTLTISSLQSEDFAVYYCQQYYSGLTFGQGTKVEIK
# B16: MAdCAM antibody Clone ID 11 of Table 7 (IgG) (antibody, V domains shown)
# VH: EVQLLESGGGLVQPGGSLRLSCAASGFTFSDYYMNWVRQAPGKGLEWVSVIGESGGSTYYADSVKGRFTISRDNSKNTLYLQMNSLRAEDTAVYYCAADPVSRWPKHGGGDYWGQGTLVTVSS
# VL: DIQMTQSPSSLSASVGDRVTITCRASQGISSSLAWYQQKPGKAPKLLIYAASTLQSGVPSRFSGSGSGTDFTLTISSLQPEDFATYYCQQSYSTPWTFGQGTKVEIK
# B17: MAdCAM antibody Clone ID 60 of Table 7 (IgG) (antibody, V domains shown)
# VH: EVQLLESGGGLVQPGGSLRLSCAASGFTFSDHGMHWVRQAPGKGLEWVSVIYGGESTYYADSVKGRFTISRDNSKNTLYLQMNSLRAEDTAVYYCARDPAVAGGGIFDYWGQGTLVTVSS
# VL: B4 VL with Q24R, G26S, D28G, N34A, T91S, P95C, I96Y
# B18: MAdCAM antibody Clone ID 82 of Table 7 (IgG) (antibody, V domains shown)
# VH: QVQLVQSGAEVKKPGASVKVSCKASGYTFTRHWIHWVRQAPGQGLEWMGWINVKTGGAGYAQKFQGRVTMTRDTSTSTVYMELSSLRSEDTAVYYCARESSGWYGTDVWGQGTTVTVSS
# VL: B16 VL with V19A, G28S, S31N, S32Y, T53S, Y92N, T94F, W96L, Q100G
# B19: MAdCAM antibody Clone ID 30 of Table 7 (IgG) (antibody, V domains shown)
# VH: EVQLLESGGGLVQPGGSLRLSCAASGFTFSSYAMHWVRQAPGKGLEWVSGISGSGGSAYYADSVKGRFTISRDNSKNTLYLQMNSLRAEDTAVYYCATSQAPVDYYYYGMDVWGQGTTVTVSS
# VL: B16 VL with G28S, S32W, T53N, S56R, T94I, W96I
# B20: MAdCAM antibody Clone ID 74 of Table 7 (IgG) (antibody, V domains shown)
# VH: QVQLVQSGAEVKKPGASVKVSCKASGYTFTGYYMHWVRQAPGQGLEWMGIINPSGGNTKYAQKFQGRVTMTRDTSTSTVYMELSSLRSEDTAVYYCTTADYYYYMDVWGKGTTVTVSS
# VL: DIQMTQSPSSLSASVGDRVTITCRASQGISNYLAWYQQKPGKAPKLLIYAASSLQSGVPSRFSGSGSGTDFTLTISSLQPEDFATYYCQQYYSNADFGQGTKVEIK
# B21: MAdCAM antibody Clone ID 65 of Table 7 (IgG) (antibody, V domains shown)
# VH: QVQLVQSGAEVKKPGASVKVSCKASGYTFTSYDINWVRQAPGQGLEWMGWMNPNSGNTGYAQKFQGRVTMTRDTSTSTVYMELSSLRSEDTAVYYCAKDSDYSNLLWDYWGQGTLVTVSS
# VL: DIQMTQSPSSLSASVGDRVTITCRASQDITNDLGWYQQKPGKAPKLLIYQASSLESGVPSRFSGSGSGTDFTLTISSLQPEDFATYYCQQSYTIPLTFGQGTKVEIK
# Molecular target: Cyno MAdCAM protein (cyno)
# Assay: Octet
row,binding,Binder
1,binds,B1
2,binds,B2
3,binds,B3
4,binds,B4
5,binds,B5
6,binds,B6
7,binds,B7
8,binds,B8
9,binds,B9
10,binds,B10
11,binds,B11
12,binds,B12
13,binds,B13
14,binds,B14
15,binds,B15
16,binds,B16
17,binds,B17
18,binds,B18
19,binds,B19
20,binds,B20
21,binds,B21

# Substitutions are numbered along the chain they refer to. No constants are given. Whether binding was seen depends on the method and setting. Binding can be weak; no strength is given.
